Measurements reported in PMC11263418.
These are yes or no findings as the source states them, for the method shown. Binding seen in cells or lysates may run through a third protein. Some results given as binding are weak or reduced against the parent protein; the word gives no strength.

Molecular target: T1, Membrane associated RING finger protein 5 (MARCH5) (human (in human OC cell lines)) (UniProt Q9NX47)
T1 sequence: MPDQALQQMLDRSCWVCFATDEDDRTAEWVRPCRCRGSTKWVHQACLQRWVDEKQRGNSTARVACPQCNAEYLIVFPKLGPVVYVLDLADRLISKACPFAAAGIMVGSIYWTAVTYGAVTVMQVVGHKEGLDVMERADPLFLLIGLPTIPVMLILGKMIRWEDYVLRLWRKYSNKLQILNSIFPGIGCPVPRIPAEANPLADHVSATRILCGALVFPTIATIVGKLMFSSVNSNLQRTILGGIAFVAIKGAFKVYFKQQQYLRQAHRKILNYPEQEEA
Experiment: co-IP; Co-IP of MARCH5 and MPC1 in OC cells; which protein was precipitated and the conditions are not told

- binding: binds
B1: mitochondrial pyruvate carrier 1 (MPC1) (protein, UniProt Q9Y5U8 1-109)
chain: MAGALVRKAADYVRSKDFRDYLMSTHFWGPVANWGLPIAAINDMKKSPEIISGRMTFALCCYSLTFMRFAYKVQPRNWLLFACHATNEVAQLIQGGRLIKHEMTKTASA
